The record followed here is patent publication US20220275025A1, “BONE REMODELING REGULATORY PEPTIDES AND APPLICATION THEREOF” (THE SECOND XIANGYA HOSPITAL OF CENTRAL SOUTH UNIVERSITY, priority 2019, published 2022).

No constants are given. Whether binding was seen depends on the method and setting. Some binding calls cover weakened binding; strength is not graded here. Tags and fused reporters may be left off the sequences shown.

T1: mOSCAR-His fusion protein (mouse) (UniProt Q8VBT3)
T1 sequence (looked up): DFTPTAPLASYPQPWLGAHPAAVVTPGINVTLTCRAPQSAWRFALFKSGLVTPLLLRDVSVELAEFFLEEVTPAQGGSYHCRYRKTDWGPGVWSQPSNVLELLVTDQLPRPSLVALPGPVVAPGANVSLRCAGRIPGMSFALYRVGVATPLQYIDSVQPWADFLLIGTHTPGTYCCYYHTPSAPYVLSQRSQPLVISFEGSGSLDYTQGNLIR

B1: A1-1 (peptide)
peptide: GAPGPQGFQ
modifications: third amino acid Pro hydroxylated (hydroxyproline, Hyp)
B2: A1-4-1 (peptide)
peptide: GPPGPAGFA
modifications: third amino acid Pro hydroxylated (hydroxyproline, Hyp)
B3: OSC^pep (peptide)
peptide: GAPGPAGFA
modifications: third amino acid Pro hydroxylated (hydroxyproline, Hyp)
B4: A1-5-3 (peptide)
peptide: GPPGATGFP
modifications: third amino acid Pro hydroxylated (hydroxyproline, Hyp)

The target of the first experiment is T1, mOSCAR-His fusion protein (mouse). The experiment is described as follows: solid-phase binding experiment, peptide coated on plate, mOSCAR-His in solution.
Turning to B1, the binding entry is given as “binds”.
For the molecule B2, the binding entry is “binds”.
Still for that read-out and setting: the same measure for B3: “binds”; for B4: “binds”.

The target is the same in another experiment. Put plainly: solid phase binding experiment, peptide coated on plate, mOSCAR-His in solution, absorbance at 492 nm.
As for B1, the binding entry is on record as “binds”.
Regarding B2, the binding result was “binds”.
For the molecule B3, the binding entry is recorded as “binds”.
Take B4: the binding entry is on record as “binds”.

For the next experiment the target is unchanged. Put plainly: solid-phase binding on 96-well plate: peptide coated, mOSCAR-His added 3 h at 37 C, HRP-labelled antibody, OPD, absorbance at 492 nm.
On to B1, for which the binding result was “binds”.
As for B2, the binding result was “binds”.
Regarding B3, the binding result is reported as “binds”.
Regarding B4, the binding result is reported as “binds”.
